PubChem BioAssay AID1259308, NCATS – 2017
In all, the deposit lists about 59,000 reagents; this is an unselected part. About 1,510 of all reagents (2.6%) were called active. 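Calls use total luciferase alone and ignore viability, so some active siRNAs may act by altering cell number.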 The numbers tell different reagents against one gene apart. Not all columns of the deposit are shown.

- Assay: 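Genes whose loss raises luciferase production in HEK293 cells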 (primary screen)
- System: human HEK293 embryonic kidney cells stably expressing firefly luciferase (HEK-CMV-Luc2-Hygro)
- Reagents: single siRNA against human genes, 0.8 pmol siRNA per well
- Time to read-out: 72 h
- Measured: 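Reporter luminescence and viable-cell signal on separate replicate plates, given as percent of non-targeting control and median/MAD z-scores, plus per-cell luciferase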
- Direction: total luciferase, z-score: higher = more reporter protein produced
- Rule for the call: 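Active when the median/MAD z-score for overall luciferase is greater than 3; a gene was taken forward for validation with new siRNAs if at least two of its three siRNAs passed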
- Meaning of the calls: active = raised luciferase; inactive = no rise

total luciferase, z-score, by gene knocked down and reagent
SLF2 (SMC5/6 complex localization factor 2): #1 1.04 inactive; #2 -0.814 inactive; #3 1.89 inactive
RASD2 (RASD family member 2): #1 -0.497 inactive; #2 0.256 inactive; #3 0.822 inactive
CD1D (CD1d molecule): #1 -0.547 inactive; #2 0.518 inactive; #3 -0.626 inactive
RBPJL: #1 -0.603 inactive; #2 0.329 inactive; #3 1.43 inactive
EIF3FP3: #1 -0.845 inactive; #2 -0.35 inactive; #3 -1.62 inactive
SYNPR (synaptoporin): #1 1.41 inactive; #2 2.32 inactive; #3 -0.811 inactive
SLC2A2: #1 -0.436 inactive; #2 -0.603 inactive; #3 0.443 inactive
RAB11FIP3 (RAB11 family interacting protein 3): #1 0.0594 inactive; #2 -0.525 inactive; #3 -1.09 inactive
UCKL1 (uridine-cytidine kinase 1 like 1): #1 -0.279 inactive; #2 -1.6 inactive; #3 0.131 inactive
ZNF432 (zinc finger protein 432): #1 -0.283 inactive; #2 -0.587 inactive; #3 -0.322 inactive
POU3F2 (POU class 3 homeobox 2): #1 1.01 inactive; #2 -0.255 inactive; #3 -0.749 inactive
THSD7B (thrombospondin type 1 domain containing 7B): #1 -1.35 inactive; #2 -1.47 inactive; #3 -0.349 inactive
ZBED3-AS1 (ZBED3 antisense RNA 1): #1 -0.168 inactive; #2 0.249 inactive; #3 -1.32 inactive

Targets listed so far whose gene name starts with S or s:
total luciferase, z-score, by gene knocked down and reagent
SLF2 (SMC5/6 complex localization factor 2): #1 1.04 inactive; #2 -0.814 inactive; #3 1.89 inactive
SYNPR (synaptoporin): #1 1.41 inactive; #2 2.32 inactive; #3 -0.811 inactive
SLC2A2: #1 -0.436 inactive; #2 -0.603 inactive; #3 0.443 inactive
